Data on 8 sequences can be found in paper PMC12054373.

Data set [1] addresses T1, bS21 (UniProt Q9KD65).
T1 sequence (looked up): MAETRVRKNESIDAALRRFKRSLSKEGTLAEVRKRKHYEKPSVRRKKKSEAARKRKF
The data set can be described thus: filter binding. The conditions noted are these: Filter binding: 20 mM Tris-HCl pH 7.5, 150 mM NaCl, 10 mM MgCl2, 1 mM TCEP, 5% glycerol, 0.001% SDS, ~2.5 nM RNA, 20°C, 15 min, residues 1-57, label: 5' 32P, probe letters rebuilt from the primers and the genome; for binding result: recombinant protein.

For data set [2], the target named is T1, bS21. The data set can be described thus: footprinting (in-line probing). As to conditions: recombinant protein, residues 1-57, label: 5' 32P, probe letters rebuilt from the primers and the genome.

A negative result means that nothing was seen under these conditions. Protein sequences can lack the tags named with them. The exact form of at least one protein or probe is not confirmed. Weaker means in comparison with the reference protein, sequence or condition of that experiment.

As to “GGAUCGAUGAAGCUCCUUGUGAUGGCUUGAGGCGCCCAGCCUUGGGUCAUUGCUGGGAGAAAAGGUAGUACCGCGAUCCACAAAGGCAUGUGGGCGAUGACGGUCCUACUG [OLE83-191 M7]”, the binding result in data set [1] (0.67 µM bS21) is “no binding”; in data set [2] (1 µM bS21, no pattern change), “no binding”.
Regarding “GGAUCGAUGAAGCUCCUUGUGAUGGCUUGAGGCGCCCAGCCUUGGGUCAUUGCUGGGAGAAAAGGUAGUACGGCGAUCCACAAAGGCAUGUGGGCGAUGACCGUCCUACUG [OLE83-191 M6]”, in data set [1] (0.67 µM bS21), the binding result is recorded as “binds more weakly”.
The same measure, in the same setting: the entry for “GGAUCGAUGAAGCUCCUUGUGAUGGCUUGAGGCGCCCAGCCUUGGGUCAUUGCUGGGAGAAAAGGUAGUAGCGCGAUCCACAAAGGCAUGUGGGCGAUGACGCUCCUACUG [OLE83-191 M5]” is “binds more weakly”.
For the sequence “GGAUCGAUGAAGCUCCUUGUGAUGGCUUGAGGCGCCCAGCCUUGGGUCAUUGCUGGGAGAAAAGGUAGUUGGGCGAUCCACAAAGGCAUGUGGGCGAUGACCCACCUACUG [OLE83-191 M1]”, the binding result in data set [1] (0.67 µM bS21, about same as WT) is “binds”.
“GGAUCGAUGAAGCUCCUUGUGAUGGCUUGAGGCGCCCAGCCUUGGGUCAUUGCUGGGAGAAAAGGUUGCUGCGCGAUCCACAAAGGCAUGUGGGCGAUGACGCAUCAACUG [OLE83-191 M4]”: the binding result in data set [1] (0.67 µM bS21, low but detectable) was “binds more weakly”; in data set [2] (pattern changes with bS21), “binds more weakly”.
In the case of “GGAUCGAUGAAGCUCCUUGUGAUGGCUUGAGGCGCCCAGCCUUGGGUCAUUGCUGGGAGAAAAGGUUGCUGGGCGAUCCACAAAGGCAUGUGGGCGAUGACCCAUCAACUG [OLE83-191 M3]”, the binding result in data set [1] (0.67 µM bS21, about same as WT) is on record as “binds”.
Still for that read-out and setting: in the case of “GGAUCGAUGAAGCUCCUUGUGAUGGCUUGAGGCGCCCAGCCUUGGGUCAUUGCUGGGAGAAAAGGUUGUUGGGCGAUCCACAAAGGCAUGUGGGCGAUGACCCACCAACUG [OLE83-191 M2]” it was “binds”.
In the case of “GGUGUCUUUUAGAAUAAGAGUGGUGCAGUAUUCUAGUCAAUCCUCCAUUCUUGAAGGCGGGGCUAAAAAUCCGCCAAAGGGCACAUCGAUGAAGCUCCUUGUGAUGGCUUGAGGCGCCCAGCCUUGGGUCAUUGCUGGGAGAAAAGGUAGUAGGGCGAUCCACAAAGGCAUGUGGGCGAUGACCCUCCUACUGUGGAGGCCUUUUUCUCUGCUGCUUAUGUAUGGACAUAGGGCAAGAGCAAAGGGUAUGAACCUGCGAAGGCAAGCUAGGGAGCUUGUCAGCAGCGUAGCCUGCCUUGAGUGGAGUAGAGGGGAUUAUGGGUUUUGAAGCAAUCCGCUGUCGGCCAACAGCCAUUGCCUCUCUAGUACCAUAUGAAAUCUGCUCUGCAAAAGAGGAUAAGAGAAUGGCAAGGGAUUGCCGAGGAAAACUCCUAGACUGUUCCAUGGGGACAUUUAAAGAGGAUUACAGUGUGGACUAAGUGGUAAUCCAGUCUGGCGUUUGGUGACAGCGCCAAGUUCAACAUAAAGGGAAACCGCCAGCGCGGCGACGCACUGGUGUUGAAUUGGGAAAUCCUACUGGACCUAAGCCACAGAGUUUACUCUUUAAAUGACCACUCUCAUACAUACGCAGUCGGAACG [OLE1-637]”, in data set [1] (10 mM MgCl2, recombinant …), the equilibrium dissociation constant (Kd) stood at 670 nM.

The term Kd denotes the equilibrium constant for the complex coming apart.
